Here are results for 3 sequences from paper PMC7203112, “Structural basis for the complex DNA binding behavior of the plant stem cell regulator WUSCHEL”.

Data set [1] concerns the target T1, WUS-HD F85A (Arabidopsis thaliana) (UniProt Q9SB92).
T1 sequence (looked up): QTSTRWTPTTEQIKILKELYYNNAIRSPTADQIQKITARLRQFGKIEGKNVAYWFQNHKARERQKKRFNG
The data set is described as follows: EMSA. To be noted: largely impaired, no distinct shift, probe called 2xTGAA; EMSA: 10 mM Tris-HCl pH 8.0, 75 mM NaCl, 50 ug/ml poly(dI-dC), 1 mM EDTA, 1 mM DTT, 5% glycerol; recombinant protein; residues 34-103; label: Cy5.

The target of data set [2] is T2, WUS-HD I66A (Arabidopsis thaliana) (UniProt Q9SB92).
T2 sequence (looked up): T1 sequence (looked up) with I33A, A52F
The data set can be described thus: EMSA. To be noted: largely impaired, no distinct shift, probe called 2xTGAA; EMSA: 10 mM Tris-HCl pH 8.0, 75 mM NaCl, 50 ug/ml poly(dI-dC), 1 mM EDTA, 1 mM DTT, 5% glycerol; recombinant protein; residues 34-103; label: Cy5.

Data set [3] concerns the target T3, WUS-HD R94K (Arabidopsis thaliana) (UniProt Q9SB92).
T3 sequence (looked up): T1 sequence (looked up) with A52F, R61K
The data set is described as follows: EMSA. The following applies: no distinct shift; EMSA: 10 mM Tris-HCl pH 8.0, 75 mM NaCl, 50 ug/ml poly(dI-dC), 1 mM EDTA, 1 mM DTT, 5% glycerol; recombinant protein; residues 34-103; label: Cy5.

Data set [4] concerns the target T4, WUS-HD RRK T35R,S36R,R94K (Arabidopsis thaliana) (UniProt Q9SB92).
T4 sequence (looked up): T1 sequence (looked up) with T2R, S3R, A52F, R61K
The data set is described as follows: EMSA. The following applies: intermediate binding; EMSA: 10 mM Tris-HCl pH 8.0, 75 mM NaCl, 50 ug/ml poly(dI-dC), 1 mM EDTA, 1 mM DTT, 5% glycerol; recombinant protein; residues 34-103; label: Cy5.

The target in data set [5] is T5, YFP-WUS-HD (Arabidopsis thaliana) (UniProt Q9SB92).
T5 sequence (looked up): T1 sequence (looked up) with A52F
The data set can be described thus: MST. The following applies: no further loss from spacer; MST: 20 mM Tris-HCl pH 8.0, 75 mM NaCl, 10 mM MgCl2, 0.05% Tween-20, 20 C, 50 nM YFP-WUS; recombinant protein; residues 34-103; protein details: N-terminal His6-YFP, C-terminal StrepII.

Numbering of substitutions follows the chain as printed. A weaker result is weaker than the reference pair of the same experiment. Tags and fusion partners may be left off the protein sequences shown. For part of these data: For at least one entry, the source does not settle the construct or the ends of the probe. For part of these data: At least one verdict was read from the data and is not stated in words by the source.

Regarding “CATCGTCGTTCATTCAATGGG (double strand) [f_TGAA]”, the binding result in data set [1], in data set [2], in data set [3] and in data set [4] was “binds more weakly” in each case.

In the case of “CGCTGAACTTCACGCC (double strand) [TGAA Tail-to-Tail 1xSpacing]”, in data set [5], the binding result is “binds more weakly”.

With “CGCTTCACTGAACGCC (double strand) [TGAA Head-to-Head 1xSpacing]”, the binding result in data set [5] is reported as “binds more weakly”.
